Results on four molecules are retold here after article doi:10.1101/2025.11.19.689067 (bioRxiv, 2025).

The chains behind the UniProt entries cited, without tags or fusion partners. Residues count along the entry.
UniProt P52799, residues 28-333: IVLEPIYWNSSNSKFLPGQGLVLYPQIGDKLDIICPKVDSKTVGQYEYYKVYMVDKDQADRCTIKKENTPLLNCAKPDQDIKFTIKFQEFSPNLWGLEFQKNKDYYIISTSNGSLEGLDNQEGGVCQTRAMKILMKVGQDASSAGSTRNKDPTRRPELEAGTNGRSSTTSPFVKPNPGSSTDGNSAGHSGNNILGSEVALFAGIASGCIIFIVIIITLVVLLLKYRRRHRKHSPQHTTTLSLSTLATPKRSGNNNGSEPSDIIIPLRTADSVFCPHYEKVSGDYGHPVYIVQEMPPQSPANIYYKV
UniProt P48357, residues 22-1165: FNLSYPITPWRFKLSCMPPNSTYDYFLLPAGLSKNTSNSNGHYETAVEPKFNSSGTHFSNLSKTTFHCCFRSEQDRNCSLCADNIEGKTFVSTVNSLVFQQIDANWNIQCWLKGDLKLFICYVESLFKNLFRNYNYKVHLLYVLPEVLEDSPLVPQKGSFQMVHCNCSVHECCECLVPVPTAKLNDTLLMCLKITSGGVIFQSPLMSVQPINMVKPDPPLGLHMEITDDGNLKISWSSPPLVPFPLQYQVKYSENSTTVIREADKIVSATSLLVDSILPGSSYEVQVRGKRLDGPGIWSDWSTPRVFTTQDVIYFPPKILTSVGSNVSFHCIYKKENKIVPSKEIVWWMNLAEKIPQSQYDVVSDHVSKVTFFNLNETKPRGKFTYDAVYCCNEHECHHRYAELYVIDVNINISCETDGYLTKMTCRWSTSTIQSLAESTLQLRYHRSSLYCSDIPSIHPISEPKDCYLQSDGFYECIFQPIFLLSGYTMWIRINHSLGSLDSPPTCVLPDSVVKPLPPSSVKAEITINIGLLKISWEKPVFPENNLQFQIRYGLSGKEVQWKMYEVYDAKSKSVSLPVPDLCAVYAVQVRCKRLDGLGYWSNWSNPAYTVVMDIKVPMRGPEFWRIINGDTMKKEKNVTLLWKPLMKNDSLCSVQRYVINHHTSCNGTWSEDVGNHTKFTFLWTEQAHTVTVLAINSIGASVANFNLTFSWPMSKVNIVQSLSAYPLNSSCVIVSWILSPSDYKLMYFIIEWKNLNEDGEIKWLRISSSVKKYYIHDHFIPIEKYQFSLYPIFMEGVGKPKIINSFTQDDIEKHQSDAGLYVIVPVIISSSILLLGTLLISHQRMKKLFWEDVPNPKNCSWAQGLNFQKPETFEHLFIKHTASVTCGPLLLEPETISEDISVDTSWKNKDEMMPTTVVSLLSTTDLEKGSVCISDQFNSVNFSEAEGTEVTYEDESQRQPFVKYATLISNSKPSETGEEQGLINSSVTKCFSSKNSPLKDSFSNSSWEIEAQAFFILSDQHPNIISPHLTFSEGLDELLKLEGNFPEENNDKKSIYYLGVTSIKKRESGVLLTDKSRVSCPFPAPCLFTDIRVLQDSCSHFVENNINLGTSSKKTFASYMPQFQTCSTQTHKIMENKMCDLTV
UniProt P13612, residues 34-1032: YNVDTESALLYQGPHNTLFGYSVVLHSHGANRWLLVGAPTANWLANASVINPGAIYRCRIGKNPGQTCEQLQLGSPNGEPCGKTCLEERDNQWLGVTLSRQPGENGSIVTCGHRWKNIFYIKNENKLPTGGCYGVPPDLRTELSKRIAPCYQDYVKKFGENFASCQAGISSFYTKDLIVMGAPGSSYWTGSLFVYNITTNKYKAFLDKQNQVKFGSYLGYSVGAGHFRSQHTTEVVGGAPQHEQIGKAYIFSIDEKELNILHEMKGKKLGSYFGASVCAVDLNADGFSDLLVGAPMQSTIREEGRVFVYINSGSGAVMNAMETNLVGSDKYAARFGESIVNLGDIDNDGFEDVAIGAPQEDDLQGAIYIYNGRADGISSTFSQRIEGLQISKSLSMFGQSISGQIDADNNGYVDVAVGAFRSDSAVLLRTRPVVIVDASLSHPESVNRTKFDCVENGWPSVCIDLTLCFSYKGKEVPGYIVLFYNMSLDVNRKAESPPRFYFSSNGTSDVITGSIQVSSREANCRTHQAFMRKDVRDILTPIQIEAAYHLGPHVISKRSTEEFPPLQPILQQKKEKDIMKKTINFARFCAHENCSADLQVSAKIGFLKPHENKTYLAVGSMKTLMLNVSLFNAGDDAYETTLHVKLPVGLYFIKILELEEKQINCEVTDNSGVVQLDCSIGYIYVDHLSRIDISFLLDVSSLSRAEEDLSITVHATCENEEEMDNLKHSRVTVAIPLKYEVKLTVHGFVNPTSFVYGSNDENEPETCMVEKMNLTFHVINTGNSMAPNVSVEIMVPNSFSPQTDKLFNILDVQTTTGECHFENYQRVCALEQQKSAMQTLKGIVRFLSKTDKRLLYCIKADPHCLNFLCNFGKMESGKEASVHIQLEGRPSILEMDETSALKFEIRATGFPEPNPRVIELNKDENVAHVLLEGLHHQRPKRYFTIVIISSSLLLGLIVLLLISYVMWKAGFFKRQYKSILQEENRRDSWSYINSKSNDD

These are yes or no findings as the source states them, for the method shown. Binding seen in cells or lysates may run through a third protein. A yes stands for co-enrichment or nearness to the bait. Other partners may have been found. A no says only that the protein was not detected with the bait.

The assay deals with DENV NS1-HA, wildtype (DENV2 NS1-His-HA) (dengue virus serotype 2) (UniProt P29990). Description: affinity purification with mass spectrometry; only the target purified.

“EFNB2, endogenous in HPMEC (from UniProt P52799 28-333)”: the binding result was “no binding”.
For “leptin receptor (LEPR), endogenous in HPMEC (from UniProt P48357 22-1165)” the value was “binds”; for “integrin alpha 4 (ITGA4), endogenous in HPMEC (from UniProt P13612 34-1032)”, “binds”.

B1: phosducin-like protein 3 (PDCL3), endogenous in HPMEC (protein, UniProt Q9H2J4 1-239)
chain: MQDPNADTEWNDILRKKGILPPKESLKELEEEAEEEQRILQQSVVKTYEDMTLEELEDHEDEFNEEDERAIEMYRRRRLAEWKATKLKNKFGEVLEISGKDYVQEVTKAGEGLWVILHLYKQGIPLCALINQHLSGLARKFPDVKFIKAISTTCIPNYPDRNLPTIFVYLEGDIKAQFIGPLVFGGMNLTRDELEWKLSESGAIMTDLEENPKKPIEDVLLSSVRRSVLMKRDSDSEGD
Turning to B1, the binding entry is given as “binds”.
